Experimental data: PubChem BioAssay AID1259405 (NCATS, 2018)

Screen: 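Knock-downs that lift recombinant protein yield in hamster ovary cells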 (primary screen)
System: Chinese hamster CHO-K1 ovary cells with stable secreted eGFP expression
Reagents: single siRNA against mouse genes, 0.8 pmol siRNA per well (2 µl of 400 nM stock)
Time to read-out: 3 days
Measured: 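Percent of the per-plate non-targeting control median for intracellular GFP per well by laser scanning cytometry and for cell viability by ATP luminescence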
Scale: GFP, % of control: higher = more GFP per well, higher productivity; viability (ATP), % of control: higher = more viable cells (more ATP)
Active means: 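Called active when intracellular GFP, relative to negative control, is at or above 120%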
In all, the deposit lists about 50,000 reagents; shown is a random part of them. Over the whole deposit, about 4,000 (8%) are marked active. 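Mouse siRNA library applied to hamster cells; one well for each siRNA.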 Reagents against one gene are numbered here.

Nrf1 (GeneID 18181) #1
- GFP, % of control: 14.7
- viability (ATP), % of control: 59.6
- Call: inactive

Nrf1 (GeneID 18181) #2
- GFP, % of control: 70.4
- viability (ATP), % of control: 82.2
- Call: inactive

Nrf1 (GeneID 18181) #3
- GFP, % of control: 68.9
- viability (ATP), % of control: 101
- Call: inactive

Ralgps2 (GeneID 78255) #1
- GFP, % of control: 40.5
- viability (ATP), % of control: 33.4
- Call: inactive

Ralgps2 (GeneID 78255) #2
- GFP, % of control: 64.4
- viability (ATP), % of control: 56.5
- Call: inactive

Ralgps2 (GeneID 78255) #3
- GFP, % of control: 55.3
- viability (ATP), % of control: 52.9
- Call: inactive

Fxyd3 (GeneID 17178) #1
- GFP, % of control: 246
- viability (ATP), % of control: 97.5
- Call: active

Fxyd3 (GeneID 17178) #2
- GFP, % of control: 55.2
- viability (ATP), % of control: 37.2
- Call: inactive

Fxyd3 (GeneID 17178) #3
- GFP, % of control: 92.8
- viability (ATP), % of control: 86.5
- Call: inactive

Nudt6 (GeneID 229228) #1
- GFP, % of control: 94
- viability (ATP), % of control: 75.8
- Call: inactive

Nudt6 (GeneID 229228) #2
- GFP, % of control: 87.4
- viability (ATP), % of control: 65.2
- Call: inactive

Nudt6 (GeneID 229228) #3
- GFP, % of control: 85.9
- viability (ATP), % of control: 87.5
- Call: inactive

Umod (GeneID 22242) #1
- GFP, % of control: 50.2
- viability (ATP), % of control: 52.4
- Call: inactive

Umod (GeneID 22242) #2
- GFP, % of control: 37.2
- viability (ATP), % of control: 54.3
- Call: inactive

Umod (GeneID 22242) #3
- GFP, % of control: 71.3
- viability (ATP), % of control: 86.8
- Call: inactive

Epas1 (GeneID 13819) #1
- GFP, % of control: 77.9
- viability (ATP), % of control: 76.3
- Call: inactive

Epas1 (GeneID 13819) #2
- GFP, % of control: 99.9
- viability (ATP), % of control: 116
- Call: inactive

Il2rg (GeneID 16186) #1
- GFP, % of control: 53.8
- viability (ATP), % of control: 68.1
- Call: inactive

Il2rg (GeneID 16186) #2
- GFP, % of control: 75.1
- viability (ATP), % of control: 73
- Call: inactive

Il2rg (GeneID 16186) #3
- GFP, % of control: 91
- viability (ATP), % of control: 77.8
- Call: inactive

Snx5 (GeneID 69178) #1
- GFP, % of control: 76.5
- viability (ATP), % of control: 96.4
- Call: inactive

Snx5 (GeneID 69178) #2
- GFP, % of control: 72.8
- viability (ATP), % of control: 86.7
- Call: inactive

BB014433 (GeneID 434285) #1
- GFP, % of control: 81.3
- viability (ATP), % of control: 59.9
- Call: inactive

BB014433 (GeneID 434285) #2
- GFP, % of control: 85.9
- viability (ATP), % of control: 87.8
- Call: inactive

BB014433 (GeneID 434285) #3
- GFP, % of control: 128
- viability (ATP), % of control: 119
- Call: active

Opcml (GeneID 330908) #1
- GFP, % of control: 74.6
- viability (ATP), % of control: 73.3
- Call: inactive

Opcml (GeneID 330908) #2
- GFP, % of control: 49.1
- viability (ATP), % of control: 57
- Call: inactive

Opcml (GeneID 330908) #3
- GFP, % of control: 108
- viability (ATP), % of control: 104
- Call: inactive

Ninj1 (GeneID 18081) #1
- GFP, % of control: 68.7
- viability (ATP), % of control: 72.7
- Call: inactive

Ninj1 (GeneID 18081) #2
- GFP, % of control: 85.3
- viability (ATP), % of control: 47.5
- Call: inactive

Tmem184b (GeneID 223693) #1
- GFP, % of control: 18
- viability (ATP), % of control: 12.2
- Call: inactive

Tmem184b (GeneID 223693) #2
- GFP, % of control: 65.3
- viability (ATP), % of control: 72.8
- Call: inactive

Tmem184b (GeneID 223693) #3
- GFP, % of control: 77.5
- viability (ATP), % of control: 91.1
- Call: inactive

Lrrtm4 (GeneID 243499) #1
- GFP, % of control: 52.7
- viability (ATP), % of control: 62.7
- Call: inactive

Lrrtm4 (GeneID 243499) #2
- GFP, % of control: 59.4
- viability (ATP), % of control: 91.6
- Call: inactive

Lrrtm4 (GeneID 243499) #3
- GFP, % of control: 92.5
- viability (ATP), % of control: 94.8
- Call: inactive

Pth1r (GeneID 19228) #1
- GFP, % of control: 40
- viability (ATP), % of control: 42
- Call: inactive

Pth1r (GeneID 19228) #2
- GFP, % of control: 67.5
- viability (ATP), % of control: 78.5
- Call: inactive

Pth1r (GeneID 19228) #3
- GFP, % of control: 63.2
- viability (ATP), % of control: 83.8
- Call: inactive

Tamalin (GeneID 56149) #1
- GFP, % of control: 60.6
- viability (ATP), % of control: 74.7
- Call: inactive

Tamalin (GeneID 56149) #2
- GFP, % of control: 61.7
- viability (ATP), % of control: 57.5
- Call: inactive

Tamalin (GeneID 56149) #3
- GFP, % of control: 65.4
- viability (ATP), % of control: 67.2
- Call: inactive

Reformatted: results already given.
Tmem184b (GeneID 223693) #2 — GFP, % of control: 65.3; viability (ATP), % of control: 72.8; Call: inactive
Tmem184b (GeneID 223693) #3 — GFP, % of control: 77.5; viability (ATP), % of control: 91.1; Call: inactive
Lrrtm4 (GeneID 243499) #1 — GFP, % of control: 52.7; viability (ATP), % of control: 62.7; Call: inactive
Lrrtm4 (GeneID 243499) #2 — GFP, % of control: 59.4; viability (ATP), % of control: 91.6; Call: inactive
Lrrtm4 (GeneID 243499) #3 — GFP, % of control: 92.5; viability (ATP), % of control: 94.8; Call: inactive
Pth1r (GeneID 19228) #1 — GFP, % of control: 40; viability (ATP), % of control: 42; Call: inactive
